Here are results for 22 molecules from US20060257938A1, “Method of screening for drugs that block ligand binding to a lipid binding protein” (priority 2005, published 2006).

Sequences and labels used below:
B1: 126V, 72A (protein, listed as Rattus norvegicus)
chain: AFDGTWKVDRNENYEKFMEKMGINVVKRKLGAHDNLKLTITQEGNKFTVKESSNFRNIDVVFELGVDFAYSAADGTELTGTWTMEGNKLVGKFKRVDNGKELIAVREISGNELIQTYTYEGVEAKVIFKKE
modifications: PEPTIDE (1)...(131) wild-type rat intestinal fatty acid binding protein
B2: 102I, 72A (protein, listed as Rattus norvegicus)
chain: AFDGTWKVDRNENYEKFMEKMGINVVKRKLGAHDNLKLTITQEGNKFTVKESSNFRNIDVVFELGVDFAYSAADGTELTGTWTMEGNKLVGKFKRVDNGKEIIAVREISGNELIQTYTYEGVEAKRIFKKE
modifications: PEPTIDE (1)...(131) wild-type rat intestinal fatty acid binding protein
B3: 14F, 72A (protein, listed as Rattus norvegicus)
chain: AFDGTWKVDRNENFEKFMEKMGINVVKRKLGAHDNLKLTITQEGNKFTVKESSNFRNIDVVFELGVDFAYSAADGTELTGTWTMEGNKLVGKFKRVDNGKELIAVREISGNELIQTYTYEGVEAKRIFKKE
modifications: PEPTIDE (1)...(131) wild-type rat intestinal fatty acid binding protein
B4: 102K, 72A (protein, listed as Rattus norvegicus)
chain: AFDGTWKVDRNENYEKFMEKMGINVVKRKLGAHDNLKLTITQEGNKFTVKESSNFRNIDVVFELGVDFAYSAADGTELTGTWTMEGNKLVGKFKRVDNGKEKIAVREISGNELIQTYTYEGVEAKRIFKKE
modifications: PEPTIDE (1)...(131) wild-type rat intestinal fatty acid binding protein
B5: 14K, 72A (protein, listed as Rattus norvegicus)
chain: AFDGTWKVDRNENKEKFMEKMGINVVKRKLGAHDNLKLTITQEGNKFTVKESSNFRNIDVVFELGVDFAYSAADGTELTGTWTMEGNKLVGKFKRVDNGKELIAVREISGNELIQTYTYEGVEAKRIFKKE
modifications: PEPTIDE (1)...(131) wild-type rat intestinal fatty acid binding protein
B6: 14Q, 72A (protein, listed as Rattus norvegicus)
chain: AFDGTWKVDRNENQEKFMEKMGINVVKRKLGAHDNLKLTITQEGNKFTVKESSNFRNIDVVFELGVDFAYSAADGTELTGTWTMEGNKLVGKFKRVDNGKELIAVREISGNELIQTYTYEGVEAKRIFKKE
modifications: PEPTIDE (1)...(131) wild-type rat intestinal fatty acid binding protein
B7: 14G, 72A (protein, listed as Rattus norvegicus)
chain: AFDGTWKVDRNENGEKFMEKMGINVVKRKLGAHDNLKLTITQEGNKFTVKESSNFRNIDVVFELGVDFAYSAADGTELTGTWTMEGNKLVGKFKRVDNGKELIAVREISGNELIQTYTYEGVEAKRIFKKE
modifications: PEPTIDE (1)...(131) wild-type rat intestinal fatty acid binding protein
B8: 14M, 72A (protein, listed as Rattus norvegicus)
chain: AFDGTWKVDRNENMEKFMEKMGINVVKRKLGAHDNLKLTITQEGNKFTVKESSNFRNIDVVFELGVDFAYSAADGTELTGTWTMEGNKLVGKFKRVDNGKELIAVREISGNELIQTYTYEGVEAKRIFKKE
modifications: PEPTIDE (1)...(131) wild-type rat intestinal fatty acid binding protein
B9: 14W, 72A (protein, listed as Rattus norvegicus)
chain: AFDGTWKVDRNENWEKFMEKMGINVVKRKLGAHDNLKLTITQEGNKFTVKESSNFRNIDVVFELGVDFAYSAADGTELTGTWTMEGNKLVGKFKRVDNGKELIAVREISGNELIQTYTYEGVEAKRIFKKE
modifications: PEPTIDE (1)...(131) wild-type rat intestinal fatty acid binding protein
B10: 14I, 72A (protein, listed as Rattus norvegicus)
chain: AFDGTWKVDRNENIEKFMEKMGINVVKRKLGAHDNLKLTITQEGNKFTVKESSNFRNIDVVFELGVDFAYSAADGTELTGTWTMEGNKLVGKFKRVDNGKELIAVREISGNELIQTYTYEGVEAKRIFKKE
modifications: PEPTIDE (1)...(131) wild-type rat intestinal fatty acid binding protein
B11: 14N, 72A (protein, listed as Rattus norvegicus)
chain: AFDGTWKVDRNENNEKFMEKMGINVVKRKLGAHDNLKLTITQEGNKFTVKESSNFRNIDVVFELGVDFAYSAADGTELTGTWTMEGNKLVGKFKRVDNGKELIAVREISGNELIQTYTYEGVEAKRIFKKE
modifications: PEPTIDE (1)...(131) wild-type rat intestinal fatty acid binding protein
B12: 14S, 72A (protein, listed as Rattus norvegicus)
chain: AFDGTWKVDRNENSEKFMEKMGINVVKRKLGAHDNLKLTITQEGNKFTVKESSNFRNIDVVFELGVDFAYSAADGTELTGTWTMEGNKLVGKFKRVDNGKELIAVREISGNELIQTYTYEGVEAKRIFKKE
modifications: PEPTIDE (1)...(131) wild-type rat intestinal fatty acid binding protein
B13: 14H, 72A (protein, listed as Rattus norvegicus)
chain: AFDGTWKVDRNENHEKFMEKMGINVVKRKLGAHDNLKLTITQEGNKFTVKESSNFRNIDVVFELGVDFAYSAADGTELTGTWTMEGNKLVGKFKRVDNGKELIAVREISGNELIQTYTYEGVEAKRIFKKE
modifications: PEPTIDE (1)...(131) wild-type rat intestinal fatty acid binding protein
B14: 14T, 72A (protein, listed as Rattus norvegicus)
chain: AFDGTWKVDRNENTEKFMEKMGINVVKRKLGAHDNLKLTITQEGNKFTVKESSNFRNIDVVFELGVDFAYSAADGTELTGTWTMEGNKLVGKFKRVDNGKELIAVREISGNELIQTYTYEGVEAKRIFKKE
modifications: PEPTIDE (1)...(131) wild-type rat intestinal fatty acid binding protein
B15: 14A, 72A (protein, listed as Rattus norvegicus)
chain: AFDGTWKVDRNENAEKFMEKMGINVVKRKLGAHDNLKLTITQEGNKFTVKESSNFRNIDVVFELGVDFAYSAADGTELTGTWTMEGNKLVGKFKRVDNGKELIAVREISGNELIQTYTYEGVEAKRIFKKE
modifications: PEPTIDE (1)...(131) wild-type rat intestinal fatty acid binding protein
B16: 14L, 72A (protein, listed as Rattus norvegicus)
chain: AFDGTWKVDRNENLEKFMEKMGINVVKRKLGAHDNLKLTITQEGNKFTVKESSNFRNIDVVFELGVDFAYSAADGTELTGTWTMEGNKLVGKFKRVDNGKELIAVREISGNELIQTYTYEGVEAKRIFKKE
modifications: PEPTIDE (1)...(131) wild-type rat intestinal fatty acid binding protein
B17: 14P, 72A (protein, listed as Rattus norvegicus)
chain: AFDGTWKVDRNENPEKFMEKMGINVVKRKLGAHDNLKLTITQEGNKFTVKESSNFRNIDVVFELGVDFAYSAADGTELTGTWTMEGNKLVGKFKRVDNGKELIAVREISGNELIQTYTYEGVEAKRIFKKE
modifications: PEPTIDE (1)...(131) wild-type rat intestinal fatty acid binding protein
B18: 14V, 72A (protein, listed as Rattus norvegicus)
chain: AFDGTWKVDRNENVEKFMEKMGINVVKRKLGAHDNLKLTITQEGNKFTVKESSNFRNIDVVFELGVDFAYSAADGTELTGTWTMEGNKLVGKFKRVDNGKELIAVREISGNELIQTYTYEGVEAKRIFKKE
modifications: PEPTIDE (1)...(131) wild-type rat intestinal fatty acid binding protein
B19: 14R, 72A (protein, listed as Rattus norvegicus)
chain: AFDGTWKVDRNENREKFMEKMGINVVKRKLGAHDNLKLTITQEGNKFTVKESSNFRNIDVVFELGVDFAYSAADGTELTGTWTMEGNKLVGKFKRVDNGKELIAVREISGNELIQTYTYEGVEAKRIFKKE
modifications: PEPTIDE (1)...(131) wild-type rat intestinal fatty acid binding protein
B20: 14E, 72A (protein, listed as Rattus norvegicus)
chain: AFDGTWKVDRNENEEKFMEKMGINVVKRKLGAHDNLKLTITQEGNKFTVKESSNFRNIDVVFELGVDFAYSAADGTELTGTWTMEGNKLVGKFKRVDNGKELIAVREISGNELIQTYTYEGVEAKRIFKKE
modifications: PEPTIDE (1)...(131) wild-type rat intestinal fatty acid binding protein
B21: 14D, 72A (protein, listed as Rattus norvegicus)
chain: AFDGTWKVDRNENDEKFMEKMGINVVKRKLGAHDNLKLTITQEGNKFTVKESSNFRNIDVVFELGVDFAYSAADGTELTGTWTMEGNKLVGKFKRVDNGKELIAVREISGNELIQTYTYEGVEAKRIFKKE
modifications: PEPTIDE (1)...(131) wild-type rat intestinal fatty acid binding protein
B22: 17A, 72A (protein, listed as Rattus norvegicus)
chain: AFDGTWKVDRNENYEKAMEKMGINVVKRKLGAHDNLKLTITQEGNKFTVKESSNFRNIDVVFELGVDFAYSAADGTELTGTWTMEGNKLVGKFKRVDNGKELIAVREISGNELIQTYTYEGVEAKRIFKKE
modifications: PEPTIDE (1)...(131) wild-type rat intestinal fatty acid binding protein

A short description of this data set: Baseline fluorescence ratio Ro of probe in absence of analyte. The note with it: baseline fluorescence ratio of probe, no fatty acid.
Turning to B1, the AvgOfRo stood at 0.28. With B2, the AvgOfRo is listed as 0.22 and the Ro is reported as 0.217. As to B3, the AvgOfRo stood at 0.22. The same measure, in the same setting: the figure for B4 is 0.39; for B5 it is 0.36; for B6 it is 0.40. On the same count and under the same terms, the value for B7 was 0.44. As to B8, the AvgOfRo worked out at 0.33 and the Ro amounted to 0.326. Consider B9, for which the AvgOfRo came out at 0.11. In the case of B10, the AvgOfRo was determined as 0.39 and the Ro is 0.391.

Consider B11, for which the AvgOfRo came out at 0.45. B12: the AvgOfRo is recorded as 0.46.

On to B13, for which the AvgOfRo amounted to 0.35.

Take B14: the AvgOfRo stood at 0.46. On to B15, for which the AvgOfRo is recorded as 0.44.

With B16, the AvgOfRo worked out at 0.31. On the same count and under the same terms, the figure for B17 is 0.46. Take B18: the AvgOfRo turned out to be 0.32 and the Ro was determined as 0.317. Consider B19, for which the AvgOfRo is listed as 0.41. Still for that read-out and setting: the value for B20 was 0.41. The same measure, in the same setting: the value for B21 was 0.44; that for B22 was 0.28.
